In publication PMC13116153:
No constants are given. Whether binding was seen depends on the method and setting. Binding seen in cells or lysates may run through a third protein.

Chains of the proteins cited; added tags and fusions are not shown.
UniProt P13864: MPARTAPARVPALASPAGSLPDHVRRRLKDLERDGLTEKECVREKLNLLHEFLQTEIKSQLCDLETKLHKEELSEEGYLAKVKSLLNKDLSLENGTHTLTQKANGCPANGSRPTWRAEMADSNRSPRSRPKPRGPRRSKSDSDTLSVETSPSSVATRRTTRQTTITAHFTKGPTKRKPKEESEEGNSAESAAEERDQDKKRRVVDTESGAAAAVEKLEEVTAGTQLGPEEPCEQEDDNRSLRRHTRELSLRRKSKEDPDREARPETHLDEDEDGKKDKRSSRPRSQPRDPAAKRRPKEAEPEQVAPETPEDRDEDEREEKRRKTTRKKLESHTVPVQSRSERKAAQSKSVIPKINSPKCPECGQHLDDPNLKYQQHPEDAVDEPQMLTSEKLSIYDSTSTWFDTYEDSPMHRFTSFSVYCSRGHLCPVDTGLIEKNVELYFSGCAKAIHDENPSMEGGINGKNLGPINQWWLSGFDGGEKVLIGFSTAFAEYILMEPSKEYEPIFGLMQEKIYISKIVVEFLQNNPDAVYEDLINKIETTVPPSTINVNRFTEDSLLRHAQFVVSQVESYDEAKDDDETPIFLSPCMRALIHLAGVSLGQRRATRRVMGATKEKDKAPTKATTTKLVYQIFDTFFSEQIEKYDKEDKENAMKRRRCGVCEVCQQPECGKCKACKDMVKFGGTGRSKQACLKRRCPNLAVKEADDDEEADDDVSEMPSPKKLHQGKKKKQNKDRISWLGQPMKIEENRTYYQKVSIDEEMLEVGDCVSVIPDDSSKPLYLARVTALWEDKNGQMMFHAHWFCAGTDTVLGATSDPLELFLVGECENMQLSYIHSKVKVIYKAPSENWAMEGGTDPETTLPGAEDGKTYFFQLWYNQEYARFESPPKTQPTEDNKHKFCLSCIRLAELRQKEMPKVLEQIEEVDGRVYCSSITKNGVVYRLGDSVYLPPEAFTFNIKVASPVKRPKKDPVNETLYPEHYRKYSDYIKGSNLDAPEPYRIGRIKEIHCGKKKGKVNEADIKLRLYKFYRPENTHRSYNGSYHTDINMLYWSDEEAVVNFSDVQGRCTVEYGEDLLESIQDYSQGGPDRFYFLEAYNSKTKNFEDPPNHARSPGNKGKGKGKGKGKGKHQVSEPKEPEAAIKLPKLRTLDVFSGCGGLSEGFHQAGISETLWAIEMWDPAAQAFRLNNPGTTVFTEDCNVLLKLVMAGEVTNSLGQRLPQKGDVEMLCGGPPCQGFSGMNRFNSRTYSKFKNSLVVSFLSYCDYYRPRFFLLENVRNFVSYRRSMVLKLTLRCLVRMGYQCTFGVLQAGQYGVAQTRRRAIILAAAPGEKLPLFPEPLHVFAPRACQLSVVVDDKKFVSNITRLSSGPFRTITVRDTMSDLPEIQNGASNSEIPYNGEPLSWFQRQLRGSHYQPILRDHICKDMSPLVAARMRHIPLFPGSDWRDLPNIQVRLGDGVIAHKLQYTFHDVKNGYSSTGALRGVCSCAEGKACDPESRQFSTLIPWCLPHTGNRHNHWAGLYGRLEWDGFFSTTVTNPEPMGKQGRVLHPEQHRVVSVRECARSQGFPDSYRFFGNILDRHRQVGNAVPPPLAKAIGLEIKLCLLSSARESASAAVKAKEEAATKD
UniProt Q9WVE0: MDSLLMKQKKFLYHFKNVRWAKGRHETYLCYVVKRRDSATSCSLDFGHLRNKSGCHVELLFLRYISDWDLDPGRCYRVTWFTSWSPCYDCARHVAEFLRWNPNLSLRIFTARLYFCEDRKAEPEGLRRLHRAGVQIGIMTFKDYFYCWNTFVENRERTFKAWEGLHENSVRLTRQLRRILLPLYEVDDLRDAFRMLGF

Target: DNMT1 (DNA methyltransferase) (mouse (endogenous in iGB cells)) (UniProt P13864)
Assay: co-IP; endogenous proteins from iGB cells (day 3 and day 6 cultures) lysed in RIPA buffer (150 mM NaCl, 1.0% IGEPAL, 0.5% sodium deoxycholate, 0.1% SDS, 50 mM Tris, pH 8.0); 3 ug anti-TET2 or anti-DNMT1 antibody overnight at 4 degrees, Protein A/G magnetic beads; immunoblot for AID

## activation-induced cytidine deaminase (AID), wild type (from UniProt Q9WVE0 1-198) (enzyme)
  binding: no binding
